These results are taken from article PMC5713202.

Amino acid sequences for entries named in this document (tags omitted).
UniProt P40337: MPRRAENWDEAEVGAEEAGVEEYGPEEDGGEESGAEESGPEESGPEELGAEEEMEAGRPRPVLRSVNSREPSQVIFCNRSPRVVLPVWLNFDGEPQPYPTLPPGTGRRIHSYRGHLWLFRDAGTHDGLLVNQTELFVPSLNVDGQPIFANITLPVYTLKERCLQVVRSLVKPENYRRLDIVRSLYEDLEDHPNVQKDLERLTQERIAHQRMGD
UniProt P26678: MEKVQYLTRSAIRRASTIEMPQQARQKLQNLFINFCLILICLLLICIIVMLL

The target of the test is von Hippel–Lindau (VHL) protein (pVHL), HEK293 cells (human (endogenous in HEK293)) (UniProt P40337). Nature of the test: co-IP; lysates of PLN-transfected HEK293 cells, 4 h after 20 μM CCCP with or without 5 mM NAC; pVHL pull-down fractions on SureBeads Protein G Magnetic Beads; Western blot with anti-PLN antibody.

Results are given in words; binding and its absence hold for the method and conditions named. In cells and extracts the contact can be indirect. Some results given as binding are weak or reduced against the parent protein; the word gives no strength.

On to “phospholamban (PLN), transfected in HEK293 cells (from UniProt P26678 1-52)”, for which the binding entry was “binds”.
